We go through one sequence from PMC10192527.

By UniProt entry, the sequences of proteins in these tests, tags left out.
UniProt Q06609, whole entry: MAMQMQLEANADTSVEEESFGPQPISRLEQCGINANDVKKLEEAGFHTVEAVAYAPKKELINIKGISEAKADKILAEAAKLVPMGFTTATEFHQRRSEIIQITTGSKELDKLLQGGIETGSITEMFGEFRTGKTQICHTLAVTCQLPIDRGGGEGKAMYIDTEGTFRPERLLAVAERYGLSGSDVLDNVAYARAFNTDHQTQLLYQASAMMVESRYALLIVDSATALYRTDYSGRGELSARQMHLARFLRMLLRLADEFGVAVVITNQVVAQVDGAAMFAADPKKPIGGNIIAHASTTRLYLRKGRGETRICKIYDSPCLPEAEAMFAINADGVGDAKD

For at least one entry, the source does not settle the construct or the ends of the probe. No signal at the amounts used counts as a negative.

The data set concerns the target RAD51 (Homo sapiens) (UniProt Q06609). Nature of the data set: cryo-EM structure (3.6 A). The following applies: ADP, Ca2+, no DNA density in any 3D class, authors allow weak or heterogeneous association; recombinant protein.

As to “ATGGTGTGTGTAGGTTAATGTGAGGAGGAGAGGTGAAGAAGGAGGAGAGAAGAAGGAGGC (double strand) [x60:cx60 dsDNA]”, the binding result is reported as “no binding”.
